Data as given in PubChem BioAssay AID686938 (Drosophila RNAi Screening Center, 2013).
In all, the deposit lists about 23,000 reagents; below is an unselected part of those with a known target gene and a result. Over the whole deposit, 75 (0.33%) are marked active. 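Raw plate signals without normalisation; calls rest on plate z-scores that were not deposited; ratio present for only 364 wells.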 The record does not give: the dose of the treatment.

- Aim: 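Knock-downs reducing store-operated calcium influx in Drosophila cells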 (primary screen)
- Cells: Drosophila S2R+ cells
- Reagents: long dsRNA against Drosophila genes, about 0.25 µg dsRNA per well, roughly 10,000 cells
- Time to read-out: 5 days of knock-down before the calcium assay
- Challenge: thapsigargin (SERCA pump blocker) to empty calcium stores; entry signal taken 4 min after adding it
- Detection: 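Per-well fluo-4 fluorescence in two replicates, unnormalised, measured in resting cells and 4 min after store depletion by the SERCA blocker thapsigargin; ratio of the two present in few wells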
- Direction: calcium entry signal: higher = stronger calcium signal after store depletion; entry to resting ratio: higher = more calcium entry relative to resting level; resting calcium signal: higher = higher resting calcium signal
- Units: calcium entry signal in fluorescence units; resting calcium signal in fluorescence units
- Active means: 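Called when the plate z-score of the entry-to-rest ratio, mean of duplicates, falls below −3; wells with low overall dye signal (Fmax z below −2) or more than five off-targets excluded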
- Meaning of the calls: active = strongly reduced calcium entry; inactive = no strong reduction

Which result is listed for inc [SID104197746]?
calcium entry signal, replicate 1: 3.12e7; calcium entry signal, replicate 2: 4.19e7; entry to resting ratio: 2.1; resting calcium signal, replicate 1: 1.46e7; resting calcium signal, replicate 2: 1.62e7; activity call: inactive

What did the screen give for inc [SID104198304]?
calcium entry signal, replicate 1: 2.05e7; calcium entry signal, replicate 2: 2.88e7; resting calcium signal, replicate 1: 1.01e7; resting calcium signal, replicate 2: 1.46e7; activity call: inactive

For Wnt2 [SID104184952], what was measured?
calcium entry signal, replicate 1: 2.81e7; calcium entry signal, replicate 2: 3.70e7; resting calcium signal, replicate 1: 1.39e7; resting calcium signal, replicate 2: 1.72e7; activity call: inactive

With Wnt2 [SID104187366], how do the results read?
calcium entry signal, replicate 1: 3.96e7; calcium entry signal, replicate 2: 4.08e7; resting calcium signal, replicate 1: 1.96e7; resting calcium signal, replicate 2: 1.91e7; activity call: inactive

Copied from the list:
Under “resting calcium signal, replicate 1”, Wnt2 [SID104187366] has 1.96e7
For “calcium entry signal, replicate 1”, Wnt2 [SID104184952] reads 2.81e7

The list goes on:
For Amyrel [SID104185712], what does the deposit list?
calcium entry signal, replicate 1: 4.15e7; calcium entry signal, replicate 2: 3.43e7; resting calcium signal, replicate 1: 1.87e7; resting calcium signal, replicate 2: 1.69e7; activity call: inactive

With CG42749 [SID104197883], how do the results read?
calcium entry signal, replicate 1: 3.21e7; calcium entry signal, replicate 2: 3.24e7; resting calcium signal, replicate 1: 1.56e7; resting calcium signal, replicate 2: 1.69e7; activity call: inactive

What is on record for CG42749 [SID104197884]?
calcium entry signal, replicate 1: 3.40e7; calcium entry signal, replicate 2: 3.04e7; resting calcium signal, replicate 1: 1.64e7; resting calcium signal, replicate 2: 1.58e7; activity call: inactive

What did the screen give for CG5445 [SID104199735]?
calcium entry signal, replicate 1: 4.49e7; calcium entry signal, replicate 2: 4.04e7; resting calcium signal, replicate 1: 2.55e7; resting calcium signal, replicate 2: 1.74e7; activity call: inactive

For CG5445 [SID104202537], what does the deposit list?
calcium entry signal, replicate 1: 4.39e7; calcium entry signal, replicate 2: 4.27e7; resting calcium signal, replicate 1: 2.01e7; resting calcium signal, replicate 2: 1.86e7; activity call: inactive

Which result is listed for CG15721 [SID104199480]?
calcium entry signal, replicate 1: 3.65e7; calcium entry signal, replicate 2: 3.62e7; resting calcium signal, replicate 1: 1.79e7; resting calcium signal, replicate 2: 1.77e7; activity call: inactive

With CG16986 [SID104188294], what does the deposit list?
calcium entry signal, replicate 1: 4.01e7; calcium entry signal, replicate 2: 4.95e7; resting calcium signal, replicate 1: 1.93e7; resting calcium signal, replicate 2: 2.17e7; activity call: inactive

For Vha68-3 [SID104182601], what does the deposit list?
calcium entry signal, replicate 1: 4.72e7; calcium entry signal, replicate 2: 3.10e7; resting calcium signal, replicate 1: 2.18e7; resting calcium signal, replicate 2: 1.62e7; activity call: inactive
